Laboratory results reported in paper PMC12040169 (PLOS Biology, 2025).
Some of the results follow.

Tested on: T1, CTL2-GFP (C. trachomatis L2/434/Bu, GFP-expressing)
T1 construct: L2/434/Bu, GFP-expressing
Set-up: species or system HeLa; Intracellular C. trachomatis growth in HeLa cells, bulk GFP fluorescence relative to DMSO
Conditions: bulk GFP, single well; 28.5 h, 10 µM; inhibitor

Structure (SMILES)	% of control remaining
O=c1[nH]c2ncc(-c3cccc(-c4ccccc4)c3)nc2n1CCCN1CCOCC1 [CBK064311]	148.481%
O=C(O)c1cc(S(=O)(=O)NCc2ccco2)ccc1Br [CBK306193]	126.874%
COc1ccc(-c2cnc3[nH]c(=O)n(Cc4cccs4)c3n2)c(OC)c1OC [CBK064716]	112.836%
CS(=O)(=O)N1CCN(Cc2cc(Br)ccc2O)CC1 [CBK263620G]	112.979%
Cc1cccc(NC(=O)c2n[nH]c3ccccc23)c1 [CBK288231]	118.829%
Nc1cc2ccccc2c(-c2ccc(OC(F)(F)F)cc2)n1 [CBK085725]	93.5918%
COc1ccc2c(c1)c(=O)oc1c(CN3CCCC3)c(O)ccc12 [CBK266814]	167.657%
CCc1nc(NC(=O)c2ccnc(Cl)c2)sc1C [CBK298287]	136.346%
C(=C\C1Nc2ccccc2-c2nnc(SCc3ccccc3)nc2O1)/c1ccccc1 (centres unmarked) [CBK264447]	102.859%
Cc1nc(C2(O)CCCN(C3CCCC3)CC2)sc1COc1ccc(F)c(F)c1 (centres unmarked) [CBK286259]	81.0806%
CC1CCCCN1S(=O)(=O)c1ccc(NCCC(=O)c2ccc(Cl)cc2)cc1 (centres unmarked) [CBK268529]	86.9837%
O=C(CN1C(=O)C2C3c4ccccc4C(c4ccccc43)C2C1=O)OCC(=O)c1ccc(F)cc1 (centres unmarked) [CBK264861]	109.608%
Brc1cn2ccnc2c(NCCc2ccccn2)n1 [CBK066244]	127.581%
Brc1ccccc1-c1nnc2n1CCCCC2 [CBK200092]	100.48%
Cc1nc(-c2ccccc2F)sc1C(=O)Nc1ccccn1 [CBK287979]	141.637%
Cc1ccc(CN2CC[C@H]3[C@@H](C2)[C@H](c2ccsc2)CN3C(=O)c2ccc(F)cc2)cc1 [CBK285637]	114.95%
CC(C)(C)OC(=O)N1CCCC(C(=O)Nc2ccccn2)C1 (centres unmarked) [CBK304524]	107.408%
OCCNc1cncc(-c2ccccc2)n1 [CBK065857]	132.945%
O=S(=O)(NCc1ccccc1)c1cc(S(=O)(=O)c2ccc(Cl)cc2)ccc1Cl [CBK263207]	72.5445%
Cc1cccc(CNc2nccnc2-c2cccc(N)c2)c1 [CBK038080]	107.388%
CCOC(=O)c1sc(NS(=O)(=O)Cc2ccccc2)nc1C [CBK047448]	122.6%
O=C(O)CCN1C(=O)c2ccc(NC(=O)c3ccccc3Cl)cc2C1=O [CBK268413]	122.449%
c1ccc2c(Sc3cnccn3)cccc2c1 [CBK085841]	101.885%
CCCOCCN1CCN(C(=O)c2nn3cc(C)cnc3c2Cl)CC1 [CBK306690]	124.875%
CC(C#CCN(C)C)N1C(=O)CCC1C (centres unmarked) [CBK008291G]	91.2477%
CCCCCNC(=O)N1CCN(CCCC(c2ccc(F)cc2)c2ccc(F)cc2)CC1 [CBK024917C]	121.747%
Cc1cccnc1CN1CCC2(CCc3ccccc3C(=O)N2)C1 (centres unmarked) [CBK284611]	112.542%

A draw from above in order of count of non-hydrogen atoms, falling:
Structure (SMILES)	% of control remaining
CCOC(=O)c1sc(NS(=O)(=O)Cc2ccccc2)nc1C [CBK047448]	122.6%
c1ccc2c(Sc3cnccn3)cccc2c1 [CBK085841]	101.885%
OCCNc1cncc(-c2ccccc2)n1 [CBK065857]	132.945%

More entries:

Structure (SMILES)	% of control remaining
Brc1cnn(-c2ccccc2)c1 [CBK027172]	145.474%
O=C(CCCc1ccccc1)Nc1c(F)cc(F)cc1OC1CCNCC1 [CBK050222T]	100%
c1cncc(CN2CCC(Oc3cncc(OCC4COc5ccccc5O4)n3)C2)c1 (centres unmarked) [CBK084365]	109.824%
Cc1ccc(C)c(C(=O)CCC(=O)Nc2cccnc2)c1 [CBK266902]	214.978%
Cc1cc2cc3n(c2nn1)N=C(Cl)CC3 [CBK019458]	134.825%
CCn1cnc2cc(NC(=O)c3ccc(C)n(C)c3=O)ccc21 [CBK281402]	90.7237%
CC(=O)N1CCc2c(sc(NC(=O)c3ccccc3C)c2C#N)C1 [CBK304681]	92.4057%
FC(F)(F)c1ccnc(SCCOc2ccccc2)n1 [CBK103721]	97.7214%
COc1ccc(/C(C)=N/NC(=N)SC2CC(=O)N(c3ccc(C(=O)O)cc3)C2=O)cc1F (centres unmarked) [CBK262805]	95.9005%
CN1CCC[C@H]1C(=O)N1CCC(Cn2cncn2)(C2CCCCC2)CC1 [CBK136818]	118.049%
COc1cc(OC)c(CN2CC3(C)CC2CC(C)(C)C3)cc1Br (centres unmarked) [CBK307074]	145.858%
CC1Oc2ccc(NC(=O)C3CC4C=CC3C43CC3)cc2NC1=O (centres unmarked) [CBK281523]	116.735%
Cc1ccc(S(=O)(=O)N2CCOCC2)cc1-c1cncc(-c2ccc(O)cc2)n1 [CBK123789]	93.3062%
O=C(CC(C(=O)O)C1CCCO1)Nc1ccc(Cl)cc1Cl (centres unmarked) [CBK261509]	120.122%
CNC(=O)c1cn2cc(-c3cccs3)n(CC3CC3)c(=O)c2n1 [CBK306838]	176.329%
COc1ccccc1-c1cnc(N)c(NC2CCOCC2)n1 [CBK063853]	145.591%
Cc1c(NC(=S)NC(=O)COc2ccc(Cl)cc2)cccc1C(=O)O [CBK265070]	100%
CCCCCC1/C(=N\O)CCC1CC(=O)OC (centres unmarked) [CBK019978]	139.248%
O=C(NCCCN1CCOCC1)c1c(Cl)cccc1Cl [CBK263631]	115.624%
CC1=NN(c2nc(-c3ccc(Br)cc3)cs2)C(=O)C1/N=N/c1cccc(CO)c1 (centres unmarked) [CBK262429]	100%
O=[N+]([O-])c1cc(CN2CCCCC2)c2cccnc2c1O [CBK265121]	138.097%
COc1cc(C(=O)N/C(=C\c2ccc(O)cc2)C(=O)O)cc(OC)c1OC [CBK262607]	112.959%
O=C(CN(c1ccc(F)cc1)S(=O)(=O)c1ccccc1)Nc1ccc2c(c1)OCCO2 [CBK265215]	125.886%
O=C(Nc1nccs1)c1ncn[nH]1 [CBK028821]	114.321%
Cc1cnc2[nH]c(C(C)C)c(CN3CCCOCC3)c2c1 [CBK284742]	124.145%
O=C(O)C1CCN(S(=O)(=O)c2ccc(F)cc2)CC1 [CBK100196]	82.6986%
